This note sets out measurements from paper PMC10599630.

By UniProt entry, the sequences of proteins in these tests, tags left out. Where a name states a change or a piece, a line headed by the entry shows the natural chain unless it says otherwise. Chains listed by the source or under a name are the forms on record and can include a tag or linker. Residues count along the entry.
IL-12α (no tag named, Fig. 2E) (P29459, residues 23-219): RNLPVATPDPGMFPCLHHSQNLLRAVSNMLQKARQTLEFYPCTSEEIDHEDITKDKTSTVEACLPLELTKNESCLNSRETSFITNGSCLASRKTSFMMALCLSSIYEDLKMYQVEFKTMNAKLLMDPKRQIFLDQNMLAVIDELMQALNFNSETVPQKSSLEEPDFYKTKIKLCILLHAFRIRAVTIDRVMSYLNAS
IL-12α^C96S (P29459, form named): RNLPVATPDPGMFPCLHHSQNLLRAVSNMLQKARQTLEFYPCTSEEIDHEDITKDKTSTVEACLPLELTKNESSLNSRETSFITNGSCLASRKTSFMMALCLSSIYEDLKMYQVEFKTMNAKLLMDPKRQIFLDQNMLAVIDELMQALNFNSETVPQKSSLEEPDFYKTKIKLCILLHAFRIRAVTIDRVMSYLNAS

In one assay the target is T1, EBI3-HA (human) (UniProt Q14213).
T1 sequence: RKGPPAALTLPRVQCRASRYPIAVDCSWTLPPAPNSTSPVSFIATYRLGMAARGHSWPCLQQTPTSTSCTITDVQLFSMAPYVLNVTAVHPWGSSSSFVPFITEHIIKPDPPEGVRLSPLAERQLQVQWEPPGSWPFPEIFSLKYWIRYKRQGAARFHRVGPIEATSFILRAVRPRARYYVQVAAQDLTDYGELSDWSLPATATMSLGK
Briefly: co-IP; cell medium of HEK293T cells co-expressing both subunits, precleared with Protein A/G agarose; anti-FLAG M2 or anti-HA magnetic beads, 2 hours at 4°C; washes with 400 mM NaCl, 0.5% NP-40, 0.5% DOC; in Fig. 2E two consecutive HA-IPs.

For the next assay, the target named is IL-12α^C96S (human) (UniProt P29459). Briefly: AUC; sedimentation velocity, 10 μM of each protein alone or the equimolar incubated proteins in PBS pH 7.4, 42,000 rpm, 20°C, absorbance at 235 nm, c(s) analysis; both purified.

These are yes or no findings as the source states them, for the method shown. For some assays here: In cells and extracts the contact can be indirect. Some binding calls cover weakened binding; strength is not graded here. For some assays here: Tags and fused reporters may be left off the sequences shown.

For “IL-12α (no tag named, Fig. 2E) (from UniProt P29459 23-219)”, the binding result with EBI3-HA (human) is on record as “binds weakly”.

Take “IL-12α^C96S (from UniProt P29459 23-219)”: the binding result with IL-12α^C96S (human) is recorded as “no binding (tested: 10 μM)”.
